Measured values from paper PMC5344696.

Target: T1, _(FLAG)EME1 (human) (UniProt Q96AY2)
T1 sequence: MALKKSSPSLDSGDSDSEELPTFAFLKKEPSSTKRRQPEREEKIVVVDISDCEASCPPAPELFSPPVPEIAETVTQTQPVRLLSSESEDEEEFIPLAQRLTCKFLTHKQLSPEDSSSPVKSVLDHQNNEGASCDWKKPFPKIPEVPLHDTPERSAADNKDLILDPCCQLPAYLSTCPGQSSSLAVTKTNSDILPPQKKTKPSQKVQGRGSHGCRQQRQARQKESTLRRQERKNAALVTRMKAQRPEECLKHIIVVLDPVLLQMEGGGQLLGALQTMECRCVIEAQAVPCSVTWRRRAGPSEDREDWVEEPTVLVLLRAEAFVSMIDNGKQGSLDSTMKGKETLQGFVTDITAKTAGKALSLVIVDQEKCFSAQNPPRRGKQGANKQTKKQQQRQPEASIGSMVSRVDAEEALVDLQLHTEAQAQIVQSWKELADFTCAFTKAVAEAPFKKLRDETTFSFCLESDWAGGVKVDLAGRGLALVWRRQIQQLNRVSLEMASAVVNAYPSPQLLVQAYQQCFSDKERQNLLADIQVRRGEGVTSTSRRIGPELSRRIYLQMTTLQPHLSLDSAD
Assay: affinity co-purification; from Hi5 cells infected with baculovirus; anti-FLAG M2 resin, HiTRAP SP HP, HiTRAP Q HP

binding: binds
Substance: MUS81^Δ86 (human) (domain or fragment)

These are yes or no findings as the source states them, for the method shown. Binding seen in cells or lysates may run through a third protein. Binding calls can cover weak binding; strength is not graded here. Where a sequence is shown, tags or fusion partners need not be part of it.
